In PubChem BioAssay AID651768 (National Center for Advancing Translational Sciences (NCATS), 2012):
About 1,700 (0.47%) of roughly 360,000 compounds were called active. Inconclusive results, whose numbers are uncertain, are shown with a selection of clear calls. The call rests on the fitted dose curve; in most records, active means well fitted inhibition curve with a large enough effect; inconclusive means small, poorly fitted or top-dose-only effect; inactive means no such curve, though single readings can be large or run the other way. Where the call is inconclusive, the potency comes from a doubtful curve fit.

By UniProt entry, the sequences of proteins in these tests, tags left out.
UniProt Q14191, whole entry, looked up: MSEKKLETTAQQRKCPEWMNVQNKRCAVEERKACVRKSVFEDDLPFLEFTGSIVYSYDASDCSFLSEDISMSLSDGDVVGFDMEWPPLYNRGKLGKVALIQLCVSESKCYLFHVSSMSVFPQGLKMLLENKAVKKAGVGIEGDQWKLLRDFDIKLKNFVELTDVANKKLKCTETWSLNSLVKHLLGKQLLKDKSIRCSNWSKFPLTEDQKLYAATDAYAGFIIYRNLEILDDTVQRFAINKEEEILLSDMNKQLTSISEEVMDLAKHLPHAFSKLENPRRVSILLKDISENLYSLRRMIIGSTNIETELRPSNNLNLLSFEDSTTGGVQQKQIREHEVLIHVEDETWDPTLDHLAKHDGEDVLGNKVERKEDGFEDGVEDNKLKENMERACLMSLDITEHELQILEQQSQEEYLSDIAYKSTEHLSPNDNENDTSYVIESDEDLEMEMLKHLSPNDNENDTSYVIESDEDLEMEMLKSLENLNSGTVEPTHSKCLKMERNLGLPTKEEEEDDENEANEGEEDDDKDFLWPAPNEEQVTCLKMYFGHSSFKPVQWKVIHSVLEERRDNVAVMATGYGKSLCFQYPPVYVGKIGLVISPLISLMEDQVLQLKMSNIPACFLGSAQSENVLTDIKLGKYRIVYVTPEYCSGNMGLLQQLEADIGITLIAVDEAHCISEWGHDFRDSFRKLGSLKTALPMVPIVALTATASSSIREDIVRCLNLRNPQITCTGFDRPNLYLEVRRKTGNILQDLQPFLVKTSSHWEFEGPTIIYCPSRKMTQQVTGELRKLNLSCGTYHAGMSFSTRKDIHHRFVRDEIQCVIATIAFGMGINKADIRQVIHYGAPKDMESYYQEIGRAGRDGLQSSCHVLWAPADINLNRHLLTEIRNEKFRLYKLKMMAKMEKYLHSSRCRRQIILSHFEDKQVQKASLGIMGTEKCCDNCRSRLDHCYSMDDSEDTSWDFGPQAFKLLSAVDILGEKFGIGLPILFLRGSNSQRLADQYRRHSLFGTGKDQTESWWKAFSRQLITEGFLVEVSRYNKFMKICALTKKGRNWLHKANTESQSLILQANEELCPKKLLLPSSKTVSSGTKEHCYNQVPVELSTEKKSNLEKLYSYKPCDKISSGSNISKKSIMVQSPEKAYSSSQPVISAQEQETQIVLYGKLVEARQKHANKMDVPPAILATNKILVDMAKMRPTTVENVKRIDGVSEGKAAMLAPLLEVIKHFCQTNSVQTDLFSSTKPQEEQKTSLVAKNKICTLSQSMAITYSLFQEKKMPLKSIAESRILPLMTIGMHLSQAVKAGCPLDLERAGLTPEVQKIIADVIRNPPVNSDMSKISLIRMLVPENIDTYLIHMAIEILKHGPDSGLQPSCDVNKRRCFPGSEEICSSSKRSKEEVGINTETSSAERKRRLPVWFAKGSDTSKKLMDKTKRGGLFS

target: Bifunctional 3'-5' exonuclease/ATP-dependent helicase WRN (Homo sapiens) (UniProt Q14191); assay: qHTS for Inhibitors of WRN Helicase; settings: WRN helicase unwinding, fluorescent forked duplex, kinetic; activity change, negative = inhibition: at 114 µM (top of the series) unless noted; further: nearly all actives have a fitted effect of over 55% in size
How it was run: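 Kinetic red-fluorescence monitoring (525/598 nm) tracks WRN helicase activity after 100 nM fluorophore-quencher forked duplex and 2 mM ATP are added to 20 nM enzyme pretreated 15 min at room temperature with compound.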
On the % scale 0 is the no-effect control and ±100 the full control effect; potency means the concentration at half of the fitted maximal effect.

Structure (SMILES) | Potency | activity change, negative = inhibition
COc1ccc(/C=N\NC(=O)c2ccc([N+](=O)[O-])c(C)c2)cc1COc1ccccc1C(N)=O | inconclusive: 44.7 µM [inhibitor, partial curve] | –
CC(C)C(CC(=O)NCc1ccco1)c1ccco1 (configuration not stated) | inconclusive: 50.1 µM [inhibitor, partial curve] | –
CCC(=S)/C=C1\Sc2ccccc2N1CCCS(=O)(=O)O | – | inactive: -9.88%
COc1cc2c(cc1OC)C(=O)C(Br)CC2 (configuration not stated) | active: 50.1 µM | –
COc1ccc2[nH]c3c(=O)n(Cc4ccc(C(=O)NCC5CCCO5)cc4)c(=S)[nH]c3c2c1 (configuration not stated) | inconclusive: 31.6 µM [inhibitor, single point] | –
COc1cc(CCN2C(=O)c3cccc4cccc(c34)C2=O)c(S(=O)(=O)NCCO)cc1OC | inconclusive: 70.8 µM [inhibitor, single point] | –
CNc1c(C(=O)O)ccc2c1C(=O)c1ccccc1C2=O | – | inactive: -29%
Cc1ccc(-n2nc3ccc(NC(=O)C(C)C)cc3n2)cc1 | – | inactive: -4.24%
CCN1CCN(c2ccc(S(=O)(=O)N3CCOCC3)cc2NC(=O)c2ccc(C(F)(F)F)cc2)CC1 | inconclusive: 89.1 µM [inhibitor, single point] | –
COc1ccc2nc(C)cc(N/N=C/c3ccccc3)c2c1 | inconclusive: 79.4 µM [inhibitor, partial curve] | –
CSc1ccc(/C=N/Nc2cccc(C(=O)O)c2)cc1 | active: 11.2 µM | –
Cc1ccc(-n2c(CNc3ccc(F)cc3)nnc2SCC(N)=O)cc1 | – | inactive: 2.95%
N#Cc1ccc(COC(=O)CN2C(=O)NC3(CCCC3)C2=O)cc1 | inconclusive: 17.8 µM [inhibitor, full curve, poor fit] | –
O=C(O)c1cccc(CN2C(=O)S/C(=C/c3ccccc3[N+](=O)[O-])C2=O)c1 | – | inactive: -11.7%
Cc1cccc(Nc2nnc(SCC(=O)c3c(N)n(C4CC4)c(=O)[nH]c3=O)s2)c1 | – | inactive: -4.08%
CCCCCNC(=O)c1ccc2c(=O)[nH]c3c(C(=O)NCC4CCCO4)sc(=S)n3c2c1 (configuration not stated) | inconclusive: 50.1 µM [inhibitor, partial curve] | –
COC(=O)c1cn(NC(=O)Cn2nc([N+](=O)[O-])c(Br)c2C)c(=O)c2ccccc12 | inconclusive: 39.8 µM [inhibitor, full curve] | –
Cc1ccc(S(=O)(=O)/N=C2/NC(=O)/C(=C\c3cc(Br)cc(Br)c3O)S2)cc1 | active: 20 µM | –
CC1=NNC(=O)C1C(c1cccc(O)c1)C(C#N)C#N (configuration not stated) | – | inactive: -1.73%
Cc1cc2c(c(=O)o1)C(c1ccc([N+](=O)[O-])o1)C(C#N)=C(N)O2 (configuration not stated) | inconclusive: 50.1 µM [inhibitor, partial curve] | –
Cc1cccc(NC(=O)CCS(=O)(=O)c2cc3c(cc2Cl)NC(=O)CO3)c1 | – | inactive: 3.22%
O=C(O)c1cccc(-c2nc3ccccc3[nH]2)c1 | inconclusive: 39.8 µM [inhibitor, single point] | –
COc1ccc(/C=C2/SC(=S)N(NS(=O)(=O)c3ccccc3)C2=O)cc1 | inconclusive: 25.1 µM [inhibitor, full curve] | –
NC(=S)NC1CC2CC1C1C=CCC21 (configuration not stated) | – | inactive: -0.376%

Complete entries, looked up by structure. Values in the order: Potency	activity change, negative = inhibition
Cc1ccc(-n2c(CNc3ccc(F)cc3)nnc2SCC(N)=O)cc1 in the list: –	inactive: 2.95%
CCCCCNC(=O)c1ccc2c(=O)[nH]c3c(C(=O)NCC4CCCO4)sc(=S)n3c2c1 (configuration not stated) in the list: inconclusive: 50.1 µM [inhibitor, partial curve]	–
CNc1c(C(=O)O)ccc2c1C(=O)c1ccccc1C2=O in the list: –	inactive: -29%
COc1ccc2[nH]c3c(=O)n(Cc4ccc(C(=O)NCC5CCCO5)cc4)c(=S)[nH]c3c2c1 (configuration not stated) in the list: inconclusive: 31.6 µM [inhibitor, single point]	–

Next compounds

Structure (SMILES) | Potency | activity change, negative = inhibition
O=[N+]([O-])c1ccc(S(=O)(=O)N2CCN(C3CCN(Cc4ccccc4)CC3)CC2)cc1 | inconclusive: 10 µM [inhibitor, full curve, poor fit] | –
COc1ccc(OC)c(C2CC(=O)N3CN(c4cccc(Cl)c4)CSC3=C2C#N)c1 (configuration not stated) | – | inactive: 0.338%
O=C(O)c1ccccc1-n1cnnn1 | – | inactive: -0.547%
CN(N)c1nc2ccccc2nc1C(F)(F)F | – | inactive: 12.6% [at 57.1 µM]
COc1cc2nc(C3CCC3)n(NC(=O)C3CCC3)c(=O)c2cc1OC | – | inactive: 6.37%
O=C1Nc2ccccc2C(=O)C1(Cl)Cc1ccccc1 (configuration not stated) | active: 44.7 µM | –
NS(=O)(=O)c1ccc(CCNC(=O)CN2CCN(Cc3cccc(C(F)(F)F)c3)CC2)cc1 | – | inactive: 4.65%
Cc1ccc(CC(=O)NC2CCN(Cc3ccccc3)CC2)cc1 | inconclusive: 89.1 µM [inhibitor, single point] | –
CCOc1ccccc1Oc1c(C)oc2c(CN3CCN(CCO)CC3)c(O)ccc2c1=O | – | inactive: -15.3%
CC(C)SCC(=O)Nc1ncc2c(n1)-c1ccccc1CC2 | inconclusive: 79.4 µM [inhibitor, partial curve] | –
OC[C@H]1O[C@@H](c2nc(-c3nc(-c4ccc(F)cc4)no3)cs2)[C@H](O)[C@@H]1O | – | inactive: -2.02%
COc1ccc(Nc2nc(NCC3CCCO3)c3ccccc3n2)c(OC)c1 (configuration not stated) | inconclusive: 39.8 µM [inhibitor, single point] | –
COCc1cc(C)nc(SCC(=O)c2ccc(O)c(O)c2)c1C#N | inconclusive: 3.55 µM [inhibitor, full curve] | –
CC(C)(C)OC(=O)CNC(=O)c1[nH]cnc1C(=O)N[C@@H](CCCCN)C(=O)OC(C)(C)C | inconclusive: 3.16 µM [inhibitor, partial curve, poor fit] | –
O=C1ON=C(c2ccccc2)/C1=C/c1ccc(OS(=O)(=O)c2ccccc2)cc1 | inconclusive: 35.5 µM [inhibitor, partial curve] | –
CC1=NOC(=O)/C1=C\c1ccc(-c2ccc(Br)cc2)o1 | inconclusive: 2.67 µM [inhibitor, partial curve] | –
O=S1(=O)C=C(Sc2nc3ccccc3s2)c2ccccc21 | inconclusive: 17.8 µM [inhibitor, full curve, poor fit] | –
COc1cc(/C=C2\SC(=S)N(Nc3ccccc3)C2=O)ccc1O | active: 15.8 µM | –
COc1ccc(C(CC(=O)N2CCCC(C)C2)c2c(OC)cc(OC)c3ccc(=O)oc23)cc1 (configuration not stated) | – | inactive: -9.29%
C=CCOc1ccc(C=NNc2ccc(S(=O)(=O)Nc3ccccc3C(=O)O)cc2[N+](=O)[O-])cc1OC | active: 50.1 µM | –
Cc1noc(/C=C/c2ccc(-c3ccccc3Cl)o2)c1[N+](=O)[O-] | – | inactive: -6.77%
COc1ccc(/C=N/NC(=O)c2nn(-c3ccc(C)c(C)c3)c(=O)c3ccccc23)cc1 | – | inactive: -13.5%
COc1ccc(/C=C(\C#N)C(=O)OCC(=O)NCc2ccccc2Cl)cc1 | inconclusive: 39.8 µM [inhibitor, single point] | –
O=[N+]([O-])c1ccccc1S(=O)(=O)N1CCN(C2CCN(Cc3ccccc3)CC2)CC1 | inconclusive: 44.7 µM [inhibitor, partial curve] | –

Structure (SMILES) | Potency | activity change, negative = inhibition
COC(=O)[C@H](CO)NS(=O)(=O)c1ccc(C)cc1 | – | inactive: -0.277%
O=c1cc(C(F)(F)F)nc(-n2[nH]c3c(c2=O)CCCC3)[nH]1 | – | inactive: -10.1% [at 57.1 µM]
O=C1NC(=S)N(C(=O)c2ccc(F)cc2)/C1=C/c1cccnc1 | inconclusive: 20 µM [inhibitor, full curve, poor fit] | –
COCC(C)NCC(=O)NC(C)CCc1ccccc1 (configuration not stated) | – | inactive: -16%
COc1ccc(C2CC(c3ccccc3)=NN2C(=O)COC(=O)c2ccc(Cl)nc2)cc1 (configuration not stated) | inconclusive: 10 µM [inhibitor, partial curve] | –
COc1cccc(C(=O)N2CCN(Cc3ccccc3C(F)(F)F)CC2)c1 | inconclusive: 25.1 µM [inhibitor, full curve, poor fit] | –
Cc1ccc(C(=O)O)cc1-c1ccc(/C=C2\SC(=O)N(CC(=O)Nc3ccc4c(c3)OCO4)C2=O)o1 | inconclusive: 4.74 µM [inhibitor, single point] | –
Cc1ccc(S(=O)(=O)Nc2cc3c(C(=O)O)c(C)oc3c3ccccc23)c(C)c1 | inconclusive: 15.8 µM [inhibitor, single point] | –
COc1cc(Cl)c(C)cc1NC(=O)COC(=O)CCc1nc2ccccc2c(=O)[nH]1 | inconclusive: 56.2 µM [inhibitor, partial curve] | –
CNc1ccc2c3c(cccc13)C(=O)N(C)C2=O | inconclusive: 56.2 µM [inhibitor, partial curve] | –
CCCCN(C(=O)c1cc(-c2ccco2)nc2ccccc12)c1c(N)n(CCC)c(=O)[nH]c1=O | inconclusive: 56.2 µM [inhibitor, partial curve] | –
CN(Cc1ccccc1)C(=O)c1ccc(NC(=O)Cc2ccc(NC(=O)C3CCCN(C(=O)C4CCC4)C3)cc2)cc1 (configuration not stated) | – | inactive: -0.189%
N#CC1=C(N)Oc2n[nH]c(-c3cccs3)c2C1c1cccs1 (configuration not stated) | – | inactive: -20.8% [at 57.1 µM]
N#Cc1c2nc3ccccc3nc2n2cc(NC(=O)c3ccc(F)cc3)ccc12 | active: 20 µM | –
Cc1ccnc2nc(C(=O)Nc3nnc(-c4ccc(Cl)cc4)o3)nn12 | – | inactive: -8.75% [at 11.6 µM]
COC(=O)c1ccccc1OCCCCN1CC(C)OC(C)C1 (configuration not stated) | inconclusive: 44.7 µM [inhibitor, partial curve] | –
CC/C(=N\Nc1ccnc2cc(Cl)ccc12)c1ccc(O)cc1 | – | inactive: -4.23%
CCCCCC(=O)Nc1cc(S(=O)(=O)O)cc2cc(S(=O)(=O)O)cc(O)c12 | active: 6.31 µM | –
CCC(=O)N1CCC1(C)C(=O)Nc1cc(OC)ccc1OC (configuration not stated) | – | inactive: 12%
Cc1sc2ncnc(N(C)CCc3ccccn3)c2c1C | inconclusive: 22.4 µM [inhibitor, full curve] | –
C=CC(=O)Nc1cccc(Nc2nc(N[C@H]3CC[C@H](N(C)C)CC3)nc3c2ncn3C(C)C)c1 | inconclusive: 44.7 µM [inhibitor, partial curve] | –
COc1cc(C2C(C#N)=C(N)OC3=C2C(=O)CC(C)(C)C3)cc2c1OCO2 (configuration not stated) | inconclusive: 39.8 µM [inhibitor, partial curve] | –
Cc1nn(CCc2nc(-c3ccco3)cs2)c2[nH]c(=O)cc(C(F)(F)F)c12 | active: 35.5 µM | –
O=C(On1c(-c2ccccc2)nc2ccccc2c1=O)c1ccco1 | inconclusive: 50.1 µM [inhibitor, partial curve] | –
